Screening data, single-dose tests

The chains behind the UniProt entries cited, without tags or fusion partners. Residues count along the entry.
UniProt P9WFT3, whole entry: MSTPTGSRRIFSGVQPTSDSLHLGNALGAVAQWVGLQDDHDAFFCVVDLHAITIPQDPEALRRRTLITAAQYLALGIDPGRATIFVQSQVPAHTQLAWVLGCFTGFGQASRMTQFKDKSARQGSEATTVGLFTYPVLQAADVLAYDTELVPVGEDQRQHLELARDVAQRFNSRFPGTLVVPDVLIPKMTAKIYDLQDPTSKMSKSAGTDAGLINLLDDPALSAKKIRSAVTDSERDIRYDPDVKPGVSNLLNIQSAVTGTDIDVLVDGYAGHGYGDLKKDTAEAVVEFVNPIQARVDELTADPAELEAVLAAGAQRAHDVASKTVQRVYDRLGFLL
UniProt P9WPC5, whole entry: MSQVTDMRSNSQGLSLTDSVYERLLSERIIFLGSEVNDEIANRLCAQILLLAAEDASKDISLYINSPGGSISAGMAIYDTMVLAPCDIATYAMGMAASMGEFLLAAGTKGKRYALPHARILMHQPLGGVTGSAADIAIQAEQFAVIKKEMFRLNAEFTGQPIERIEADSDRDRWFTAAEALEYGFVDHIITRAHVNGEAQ
UniProt P9WPC3, whole entry partner: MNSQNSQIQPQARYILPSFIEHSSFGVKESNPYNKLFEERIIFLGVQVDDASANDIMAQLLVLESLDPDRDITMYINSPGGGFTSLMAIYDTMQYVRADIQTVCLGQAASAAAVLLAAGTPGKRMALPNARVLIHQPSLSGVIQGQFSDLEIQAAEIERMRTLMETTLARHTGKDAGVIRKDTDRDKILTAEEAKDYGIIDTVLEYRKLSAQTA
UniProt I6X8D2, whole entry: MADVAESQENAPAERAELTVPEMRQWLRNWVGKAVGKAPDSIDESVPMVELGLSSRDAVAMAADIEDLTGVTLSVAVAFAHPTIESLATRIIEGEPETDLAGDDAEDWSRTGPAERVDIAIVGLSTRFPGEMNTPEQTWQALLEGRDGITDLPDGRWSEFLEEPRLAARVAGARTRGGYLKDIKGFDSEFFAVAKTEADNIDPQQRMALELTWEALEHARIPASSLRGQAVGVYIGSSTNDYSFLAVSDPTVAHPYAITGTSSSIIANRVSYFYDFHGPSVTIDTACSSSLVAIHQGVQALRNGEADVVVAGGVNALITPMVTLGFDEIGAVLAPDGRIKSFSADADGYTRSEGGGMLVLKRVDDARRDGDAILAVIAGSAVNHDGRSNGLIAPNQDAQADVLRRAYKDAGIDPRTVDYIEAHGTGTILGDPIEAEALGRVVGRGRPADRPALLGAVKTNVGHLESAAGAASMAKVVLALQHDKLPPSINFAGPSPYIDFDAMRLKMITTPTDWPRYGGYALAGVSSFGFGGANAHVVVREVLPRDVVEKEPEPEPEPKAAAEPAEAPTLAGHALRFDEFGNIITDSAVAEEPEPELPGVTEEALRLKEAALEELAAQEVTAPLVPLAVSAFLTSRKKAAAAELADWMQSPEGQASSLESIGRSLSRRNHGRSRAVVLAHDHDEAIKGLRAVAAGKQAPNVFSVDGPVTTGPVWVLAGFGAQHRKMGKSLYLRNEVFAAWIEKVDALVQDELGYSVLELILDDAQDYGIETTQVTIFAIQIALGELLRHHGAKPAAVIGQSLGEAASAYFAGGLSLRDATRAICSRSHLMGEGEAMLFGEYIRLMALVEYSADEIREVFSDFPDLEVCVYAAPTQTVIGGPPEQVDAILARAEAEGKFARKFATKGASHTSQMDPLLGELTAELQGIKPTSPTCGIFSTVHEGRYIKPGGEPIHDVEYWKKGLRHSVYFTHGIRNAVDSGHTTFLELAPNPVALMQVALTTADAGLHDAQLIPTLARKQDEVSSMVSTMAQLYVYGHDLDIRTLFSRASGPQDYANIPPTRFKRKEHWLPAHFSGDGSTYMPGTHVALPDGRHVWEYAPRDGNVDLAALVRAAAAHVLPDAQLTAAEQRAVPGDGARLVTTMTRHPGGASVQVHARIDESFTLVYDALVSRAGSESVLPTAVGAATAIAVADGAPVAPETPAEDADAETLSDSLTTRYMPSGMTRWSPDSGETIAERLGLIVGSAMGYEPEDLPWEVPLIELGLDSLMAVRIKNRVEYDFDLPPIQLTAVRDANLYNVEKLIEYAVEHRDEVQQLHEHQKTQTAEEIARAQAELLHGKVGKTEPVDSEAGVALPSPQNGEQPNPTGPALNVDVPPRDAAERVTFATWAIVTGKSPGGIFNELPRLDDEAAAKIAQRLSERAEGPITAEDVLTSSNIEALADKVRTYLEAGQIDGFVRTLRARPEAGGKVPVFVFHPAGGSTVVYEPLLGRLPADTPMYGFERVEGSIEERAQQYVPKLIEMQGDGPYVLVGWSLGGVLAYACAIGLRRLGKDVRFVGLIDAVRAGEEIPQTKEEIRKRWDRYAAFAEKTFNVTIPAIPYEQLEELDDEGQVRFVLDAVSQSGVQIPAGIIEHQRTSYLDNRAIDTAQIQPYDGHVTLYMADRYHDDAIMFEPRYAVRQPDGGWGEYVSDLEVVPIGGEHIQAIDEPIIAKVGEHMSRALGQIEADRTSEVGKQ
UniProt Q8IDJ8, 1-583: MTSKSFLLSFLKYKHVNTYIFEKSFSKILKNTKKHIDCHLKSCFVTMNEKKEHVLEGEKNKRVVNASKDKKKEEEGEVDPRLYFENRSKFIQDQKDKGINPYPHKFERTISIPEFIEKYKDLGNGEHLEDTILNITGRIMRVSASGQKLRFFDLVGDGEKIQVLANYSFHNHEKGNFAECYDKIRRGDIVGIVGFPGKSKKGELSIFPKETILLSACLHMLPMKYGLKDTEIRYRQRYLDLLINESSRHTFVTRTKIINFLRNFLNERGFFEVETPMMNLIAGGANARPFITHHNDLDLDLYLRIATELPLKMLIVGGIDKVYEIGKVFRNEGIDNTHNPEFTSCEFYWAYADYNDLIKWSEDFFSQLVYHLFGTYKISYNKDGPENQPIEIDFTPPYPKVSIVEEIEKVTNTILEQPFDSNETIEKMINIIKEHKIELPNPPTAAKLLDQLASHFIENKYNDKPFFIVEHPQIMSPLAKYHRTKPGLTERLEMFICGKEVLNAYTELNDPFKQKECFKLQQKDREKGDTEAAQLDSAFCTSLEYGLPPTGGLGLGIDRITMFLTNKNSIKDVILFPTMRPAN

The values are deposited in ChEMBL (CHEMBL3988442, “University of Dundee, Small-Polar-MMV Screening Library” (2021)).

MtTrpRS: 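Tryptophan-tRNA ligase, Mycobacterium tuberculosis (UniProt P9WFT3). Enzyme assay of tryptophanyl-tRNA synthetase; the read-out is not stated. Tested at 10 µM. Direction is not recorded; retested compounds ran higher, which suggests that high means inhibition. About 65,000 compounds were tested under these conditions; 0.098% (about 64) showed 50% or more at least once.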
ClpP1P2: 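ClpP1P2, Mycobacterium tuberculosis (UniProt P9WPC5 and UniProt P9WPC3). Protease assay of ClpP1P2, read by the AMC dye that it sets free. Compounds at 50 µM. Higher reads as stronger inhibition, judged from the few compounds that gave an IC50. Most other retested compounds had strongly negative values. About 69,000 compounds were tested under these conditions; 0.015% (about 10) showed 50% or more at least once.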
Pks13 thioesterase: 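Enzyme assay of the thioesterase domain of polyketide synthase 13; the read-out is not stated. Target: Polyketide synthase Pks13, Mycobacterium tuberculosis (UniProt I6X8D2). Compounds at 30 µM. The record gives no direction; the compounds picked for IC50 retests had high values, so higher reads as stronger inhibition. About 67,000 compounds were tested under these conditions; 0.46% (about 300) showed 50% or more at least once.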
PfKRS1: 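Enzyme assay of the cytosolic lysyl-tRNA synthetase in 384-well plates, read by luminescence. Target: Lysine-tRNA ligase, Plasmodium falciparum 3D7 (UniProt Q8IDJ8). Compounds at 30 µM. Direction is inferred from only a few compounds that gave an IC50; most scored high, so higher reads as stronger inhibition. Size under these conditions: about 69,000 compounds, about 49 of them at 50% or above in at least one test.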

Each number is a percent effect as filed.
The record does not define 0% and 100%; most values in the screen are far below 50% and negative numbers occur (in some assays of this library far below -100).
The compounds are a random part of those screened.
A dash means the value is not listed here; it may have been measured.

* CN(C)C1CC2(CCN(C(=O)c3csnn3)CC2)c2ccccc21 (centres undefined) | MtTrpRS: -4.794%; ClpP1P2: -16.47%; PfKRS1: 2.138%
* CC(NC(=O)c1ccc(Cl)cc1)c1nnc(SCC(N)=O)n1C (centres undefined) | MtTrpRS: 2.073%; ClpP1P2: -2.784%; Pks13 thioesterase: -18.03%; PfKRS1: 3.932%
* O=C(O)c1cnc(N2CCC(O)CC2)nc1COc1ccc(F)cc1 | MtTrpRS: 1.537%; ClpP1P2: 10.52%; Pks13 thioesterase: -11.3%; PfKRS1: 2.784%
* COc1cc(C)nc(N2CCN(C(C)c3nc(C)no3)CC2)n1 (centres undefined) | MtTrpRS: 1.445%; ClpP1P2: -5.776%; Pks13 thioesterase: -45.44%; PfKRS1: 2.41%
* CN(C)c1cccc(C(=O)NCC(O)c2cccs2)c1 (centres undefined) | MtTrpRS: -3.284%; ClpP1P2: 1.304%; Pks13 thioesterase: -11.98%; PfKRS1: 2.713%
* CCCc1nnc(N(C)CC2CCN(CC(C)C)CC2)o1 | MtTrpRS: -3.112%; ClpP1P2: 15.11%; Pks13 thioesterase: -30.96%; PfKRS1: -1.62%
* Cc1cc(C)c(C(=O)N2CCOCC2c2c(C)n[nH]c2C)o1 (centres undefined) | MtTrpRS: -3.342%; ClpP1P2: -20.17%; Pks13 thioesterase: -9.434%; PfKRS1: 0.8634%
* CN(C)C(=O)CO[C@@H]1CN(Cc2ccccc2F)[C@@H]2CCCO[C@@H]21 | MtTrpRS: -1.526%; ClpP1P2: -4.699%; Pks13 thioesterase: -31.13%; PfKRS1: 3.944%
* COCCN(C)C[C@@H]1CN(C(=O)c2cccc(Cl)c2)C[C@@H]1CO | MtTrpRS: -2.935%; ClpP1P2: 4.898%; Pks13 thioesterase: -4.032%; PfKRS1: 6.989%
* CCC(=O)N1CCC2(COCc3cnc(NCc4ccco4)nc32)C1 (centres undefined) | MtTrpRS: -1.543%; ClpP1P2: -15.84%; Pks13 thioesterase: -13.68%; PfKRS1: 4.491%
* CCn1c(C)nnc1SCCNC(=O)c1cnc(N(C)C)nc1C | MtTrpRS: -3.306%; ClpP1P2: 2.507%; Pks13 thioesterase: -21.55%; PfKRS1: 3.572%
* CC(NC(=O)c1cc(-c2cccc(Cl)c2)no1)C(=O)N(C)C (centres undefined) | MtTrpRS: -1.204%; ClpP1P2: -19.76%; Pks13 thioesterase: -54.18%; PfKRS1: -0.101%
* Cc1ccc(N2CC[C@H](O)[C@@H]2Cc2cnn(C)c2)nn1 | MtTrpRS: -1.824%; ClpP1P2: 4.208%; Pks13 thioesterase: -12.9%; PfKRS1: 2.443%
* c1ccc(CO[C@H]2CO[C@@]3(CCCN(Cc4ccncc4)C3)C2)nc1 | MtTrpRS: 2.49%; ClpP1P2: -11.43%; Pks13 thioesterase: 1.353%; PfKRS1: 4.807%
* CCCn1ccnc1SCC(=O)NC(Cc1ccccc1)C(C)=O (centres undefined) | MtTrpRS: 1.475%; ClpP1P2: 4.672%; Pks13 thioesterase: -7.573%; PfKRS1: 7.213%
* Cc1nnc(C(C)N2CCc3[nH]c4ccc(Cl)cc4c3C2)o1 (centres undefined) | MtTrpRS: -1.615%; ClpP1P2: 12.57%; Pks13 thioesterase: -3.158%; PfKRS1: 0.3242%
* CC(C)c1noc(CN2CCC(c3nc4cc(Cl)ccc4o3)CC2)n1 | MtTrpRS: -0.6583%; ClpP1P2: 11.45%; Pks13 thioesterase: -16.79%; PfKRS1: -0.4857%
* CSc1cccc(CN(C)C(=O)c2ccc(C3CCCNC3)cc2)c1 (centres undefined) | MtTrpRS: 0.3221%; ClpP1P2: 5.045%; Pks13 thioesterase: -10.55%; PfKRS1: 2.865%
* CCC(=O)N1CCc2[nH]cnc2C12CCN(C(=O)c1snnc1C)CC2 | MtTrpRS: 2.664%; ClpP1P2: 1.537%; Pks13 thioesterase: -15.07%; PfKRS1: 7.075%
* COC[C@@]12CCO[C@@H]1CCN(Cc1sccc1C)C2 | MtTrpRS: -5.969%; ClpP1P2: -0.6258%; Pks13 thioesterase: -15.09%; PfKRS1: 6.31%
* O=C1NCC2(CCCN(C(=O)c3ccc4c(c3)CCCO4)CC2)O1 (centres undefined) | MtTrpRS: -4.749%; ClpP1P2: 4.091%; Pks13 thioesterase: -33.43%; PfKRS1: 5.025%
* COC(=O)c1ccc(OC)c(CN2CCN(CC(C)C)C(=O)C2C)c1 (centres undefined) | MtTrpRS: -5%; ClpP1P2: 9.929%; Pks13 thioesterase: -10.69%; PfKRS1: -2.802%
* CCc1nc(C2CCCN(C(=O)NCCOC)C2)no1 (centres undefined) | MtTrpRS: 9.655%; ClpP1P2: -25.15%; Pks13 thioesterase: -7.095%; PfKRS1: -1.937%
* Cc1nc(C)n(C2CCCN(C(=O)c3ccc4nccn4c3)C2)n1 (centres undefined) | MtTrpRS: 16.45%; ClpP1P2: -23.68%; Pks13 thioesterase: -30.42%; PfKRS1: -1.105%
* O=C1CNc2ncnc(Nc3cnn(Cc4cccc(F)c4)c3)c2N1 | MtTrpRS: -1.748%; ClpP1P2: -6.503%; Pks13 thioesterase: 4.424%; PfKRS1: -0.7551%
* COCCO[C@@H]1CCN(C(=O)c2ccc(C)o2)[C@@H]1Cc1cccnc1 | MtTrpRS: 0.5629%; ClpP1P2: 0.5976%; Pks13 thioesterase: 1.466%; PfKRS1: 2.011%
* COc1ccc(C(=O)N2CCOCC(CO)C2)cc1N1CCOCC1 (centres undefined) | MtTrpRS: -1.079%; ClpP1P2: -8.039%; Pks13 thioesterase: -21.47%; PfKRS1: 3.426%
* O=C(COCC1CC1)N1CCSCC1 | MtTrpRS: 0.1282%; ClpP1P2: -15.65%; Pks13 thioesterase: -20.92%; PfKRS1: 1.872%
* CCN1CCCCC1C(=O)N1CCc2onc(-c3ccc(Cl)cc3)c2C1 (centres undefined) | MtTrpRS: 0.4442%; ClpP1P2: 1.019%; Pks13 thioesterase: -6.862%; PfKRS1: 4.835%
* CNCC(=O)N1CCCC1c1cncc(Oc2ccc(F)cc2)n1 (centres undefined) | ClpP1P2: -0.4325%; Pks13 thioesterase: 4.166%; PfKRS1: 5.551%
* COCCn1cc(NC(=O)NC(C)Cc2c(F)cccc2F)cn1 (centres undefined) | MtTrpRS: 7.157%; ClpP1P2: 18.11%; Pks13 thioesterase: -10.13%; PfKRS1: 2.429%

Repeated from the top, 2 entries:

structure	MtTrpRS	ClpP1P2	Pks13 thioesterase	PfKRS1
CN(C)C1CC2(CCN(C(=O)c3csnn3)CC2)c2ccccc21 (centres undefined)	-4.794	-16.47	-	2.138
CC(NC(=O)c1ccc(Cl)cc1)c1nnc(SCC(N)=O)n1C (centres undefined)	2.073	-2.784	-18.03	3.932